These are yes or no findings as the source states them, for the method shown. Binding seen in cells or lysates may run through a third protein. For some assays here: Sequences can lack the tags named with a protein.
Tests used:
KDELR-mCherry (human) = target: T1, KDELR-mCherry (human) (UniProt P24390); experiment: co-IP; anti-RFP agarose beads, HeLa lysates (20 mM HEPES pH 7.4, 100 mM NaCl, 2 mM DDM, 0.02% CHS), 4 h at 4 °C, western blot of endogenous partners
T1 sequence: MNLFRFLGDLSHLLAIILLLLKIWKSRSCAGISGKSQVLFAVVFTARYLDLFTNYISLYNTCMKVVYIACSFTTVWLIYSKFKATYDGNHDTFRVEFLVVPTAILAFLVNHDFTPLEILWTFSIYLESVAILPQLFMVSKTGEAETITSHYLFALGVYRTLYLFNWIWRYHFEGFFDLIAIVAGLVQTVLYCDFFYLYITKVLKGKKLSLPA

[1] = target: T2, endogenously Flag-mCherry tagged KDELR (human (endogenous in HeLa)) (UniProt P24390); experiment: as above
T2 sequence: T1 sequence

**Q.** What does the source list for “E-cadherin (endogenous, HeLa) (human (endogenous in HeLa))”?
**A.** binding (KDELR-mCherry (human)): no binding; binding [1]: no binding
